Here are results for 2 substances from PMC2566595.

Protein sequences, listed by entry. Tags and fused reporters are not part of them. Lines headed by an entry give the natural chain unless they say otherwise; changes in a name come on top. Chains listed by the source or under a name are the forms on record and can include a tag or linker. Residues count along the entry.
UniProt Q676U5: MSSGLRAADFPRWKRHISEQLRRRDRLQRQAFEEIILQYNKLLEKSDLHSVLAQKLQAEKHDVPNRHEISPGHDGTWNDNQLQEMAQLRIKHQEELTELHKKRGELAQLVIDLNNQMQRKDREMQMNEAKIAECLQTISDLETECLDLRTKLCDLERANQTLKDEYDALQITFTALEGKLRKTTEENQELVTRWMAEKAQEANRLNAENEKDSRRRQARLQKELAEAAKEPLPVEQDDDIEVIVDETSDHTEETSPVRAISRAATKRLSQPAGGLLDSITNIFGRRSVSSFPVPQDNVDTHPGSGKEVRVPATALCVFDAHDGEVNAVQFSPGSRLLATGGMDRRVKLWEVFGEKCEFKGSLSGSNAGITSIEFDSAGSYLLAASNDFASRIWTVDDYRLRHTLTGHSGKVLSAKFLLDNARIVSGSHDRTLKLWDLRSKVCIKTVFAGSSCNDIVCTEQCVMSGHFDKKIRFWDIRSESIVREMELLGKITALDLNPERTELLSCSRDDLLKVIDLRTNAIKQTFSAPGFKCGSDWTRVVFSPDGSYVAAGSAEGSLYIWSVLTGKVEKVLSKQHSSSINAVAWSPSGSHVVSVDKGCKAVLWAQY
ATG16L1 ΔN (amino acids 85-607 of isoform 1, *300T), FLAG-tagged: residues 85-607 of Q676U5
ATG16L1 WD (amino acids 286-607 of isoform 1, *300T), FLAG-tagged: residues 286-607 of Q676U5
human ATG16L1 isoform 1, Crohn's disease-associated coding variant ATG16L1*300A (Q676U5-1, form named): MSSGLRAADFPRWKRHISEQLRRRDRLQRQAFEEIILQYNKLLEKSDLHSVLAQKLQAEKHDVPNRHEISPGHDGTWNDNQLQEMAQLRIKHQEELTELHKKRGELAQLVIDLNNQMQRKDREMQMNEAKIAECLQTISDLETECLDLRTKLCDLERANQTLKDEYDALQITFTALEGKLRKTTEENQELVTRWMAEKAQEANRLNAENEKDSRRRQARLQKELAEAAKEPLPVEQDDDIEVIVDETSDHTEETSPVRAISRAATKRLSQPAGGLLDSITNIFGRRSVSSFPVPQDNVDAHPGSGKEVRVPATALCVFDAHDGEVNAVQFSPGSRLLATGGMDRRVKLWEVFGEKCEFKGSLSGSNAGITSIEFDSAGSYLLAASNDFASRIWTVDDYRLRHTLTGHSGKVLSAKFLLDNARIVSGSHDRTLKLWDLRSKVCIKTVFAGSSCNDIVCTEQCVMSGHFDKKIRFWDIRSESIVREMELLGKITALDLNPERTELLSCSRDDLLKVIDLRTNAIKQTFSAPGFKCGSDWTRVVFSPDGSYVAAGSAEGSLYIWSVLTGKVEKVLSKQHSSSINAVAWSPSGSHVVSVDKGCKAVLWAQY

No constants are given. Whether binding was seen depends on the method and setting. In cells and extracts the contact can be indirect. Some results given as binding are weak or reduced against the parent protein; the word gives no strength.

Common to all, as to experiment: co-IP; HEK293T cells co-transfected with N-terminally FLAG-tagged ATG16L1 constructs and MYC-tagged ATG16L1 or HA-tagged ATG5; lysed 40 h post-transfection; lysate incubated with anti-FLAG antibody and goat anti-mouse beads overnight at 4°C; Western blot with anti-MYC or anti-HA antibody
For orientation: In western blotting, separated proteins are transferred to a membrane and probed.

Test [1] deals with ATG16L1 WD (amino acids 286-607 of isoform 1, *300T), FLAG-tagged (human) (UniProt Q676U5).
For test [2], the target named is ATG16L1 ΔN (amino acids 85-607 of isoform 1, *300T), FLAG-tagged (human) (UniProt Q676U5).
For test [3], the target named is human ATG16L1 isoform 1, ATG16L1*300T (human) (UniProt Q676U5).
Test [4] has as its target human ATG16L1 isoform 1, Crohn's disease-associated coding variant ATG16L1*300A (human) (UniProt Q676U5).

Regarding “human ATG16L1 isoform 1, ATG16L1*300T (from UniProt Q676U5-1 1-607)”, the results for the binding entry in test [1], in test [2] and in test [3] were “no binding”, “binds” and “binds”, respectively.

Turning to “human ATG16L1 isoform 1, Crohn's disease-associated coding variant ATG16L1*300A (from UniProt Q676U5-1 1-607)”, the binding result in test [4] is listed as “binds”.
